No constants are given. Whether binding was seen depends on the method and setting. In cells and extracts the contact can be indirect. A result given as binding can be weak or reduced; the word gives no strength.
Target: H-NS2 with a His tag at the N-terminal end (6His-H-NS2, plasmid pLATE51-6HisH-NS2) (E. coli strain 042)
Assay: pull-down; purified His-tagged H-NS2 (tag at the C- or N-terminal end) mixed with E. coli 042 total protein extract, purified again on Ni2+-agarose (A50 buffer: 20 mM HEPES, 100 mM KCl, 5 mM MgCl2, 50 mM imidazole; eluted with 200 mM to 1 M imidazole); SDS-PAGE with Coomassie blue, bands identified by LC-MS/MS; only the target purified

B1: H-NS protein of E. coli strain 042 (protein, UniProt P0ACF8 1-137)
chain: MSEALKILNNIRTLRAQARECTLETLEEMLEKLEVVVNERREEESAAAAEVEERTRKLQQYREMLIADGIDPNELLNSLAAVKSGTKAKRAQRPAKYSYVDENGETKTWTGQGRTPAVIKKAMDEQGKSLDDFLIKQ
  binding: binds

From paper PMC5861252
